# Experimental data reported in patent publication US20240261245A1, “METHODS OF TREATING CANCERS HAVING A DEREGULATED NRF2/KEAP1 PATHWAY” (New York University, priority 2017, published 2024).
# For at least one compound, name, drawing or mass did not settle the structure.
# Tested on: KP, KPN and KPK cell lines
# Assay: Viability of isogenic cell line panel treated with oxidative stress inducers (cell-titer glo)
# Assay type: cell-based, mouse
# Conditions: 72 hours of drug treatment
# Experimental: Cells were maintained in DMEM or RPMI supplemented with 10% Fetal Bovine Serum and gentamicin. Cell lines expressing rtTA were kept under Neomycin selection (400 ug/mL). Cell lines expressing dox inducible Nrf2 constructs remained under Hygromycin selection (600 ug/mL). […] Viability in the presence of all compounds was assessed by cell titer glo (Promega #G7570) and trypan blue exclusion on a Countess II automated cell counter (Life Technologies). For clonogenic and low-density assays, cells were stained with Crystal Violet solution (25% Methanol 75% H20). For cell counts after DMF treatment cells were fixed with 4% paraformaldehyde for 15 minutes at 4 C. Cells were then washed in ice cold PBS and then stained with Hoechst DNA stain. Plates were quantified using a Tecan infinite M200 Pro plate reader or a SpectraMax M5 Miroplate reader (Molecular Devices).
smiles,measurement,value
"CCOc1ccccc1-n1c(C(C)N2CCN(C(=O)COc3ccc(Cl)cc3)CC2)nc2ccccc2c1=O (stereo not shown) [erastin, Erastin]",genotype-specific sensitivity (cell viability),distinct genotype-specific sensitivities
